The values that follow come from US7172865.

Chains of the proteins cited; added tags and fusions are not shown. Residues count along the entry.
UniProt P0ACJ8, 2-210: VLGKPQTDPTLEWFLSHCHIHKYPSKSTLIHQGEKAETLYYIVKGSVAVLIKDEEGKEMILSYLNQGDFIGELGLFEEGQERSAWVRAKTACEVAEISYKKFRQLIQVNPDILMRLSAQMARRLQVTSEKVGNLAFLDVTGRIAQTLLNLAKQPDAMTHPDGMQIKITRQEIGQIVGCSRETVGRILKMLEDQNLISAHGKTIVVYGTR

The exact form of at least one protein or probe is not confirmed.

This data set deals with CAP (cAMP receptor protein, CRP) (Escherichia coli) (UniProt P0ACJ8). Nature of the data set: binding assay. To be noted: 12 Spacer 18 units between the C22 and A23 positions of CAP7 (after ...GGCACC) [strand 1: 2 (N, modified T), 12 Spacer 18 units left out after ...GGCACC (between 21 and 22 as printed; stated C22/A23); strand 2: 2 (N, modified T)]; FRET quenching about 70% at 75 nM CAP, complete within about 20 s; 50 mM NaCl, 200 uM cAMP; purified recombinant protein; letters built from the parent sequence and the stated change.

As to “CTAGATCACATTTTAGGCACCAACGCAATAAATGTGAT / CTAGATCACATTTATTGCGTT / GGTGCCTAAAATGTGAT [CAP7/CAP8/CAP9 linked construct]”, the binding result is “binds”.
